Source: paper PMC3196505

Experiments:
Assay in all cases: two-hybrid; directed Y2H with Clontech MatchMaker GAL4 Two-Hybrid System 3 (pGADT7/pGAD-GW and pGBKT7/pGBK-GW constructs); growth on selective medium
[1] = molecular target: T1, CJD1_(60–164), GAL4 fusion (directed yeast 2-hybrid) (Arabidopsis thaliana) (UniProt Q93WG3)
T1 sequence: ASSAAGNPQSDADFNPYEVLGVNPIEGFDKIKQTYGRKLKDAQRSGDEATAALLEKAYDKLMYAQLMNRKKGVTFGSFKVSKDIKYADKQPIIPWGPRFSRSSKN

[2] = molecular target: ARC6_(84–331) (Arabidopsis thaliana)
[3] = molecular target: ARC6_(154–331) (Arabidopsis thaliana)
[4] = molecular target: Mature cpHSP70-2 (aa77–718) (Arabidopsis thaliana)
[5] = molecular target: J domain (amino acids 32–200) of atDjA24 (Arabidopsis thaliana)

ARC6_(84–331) (Arabidopsis thaliana) (domain or fragment)
binding [1]: binds

B1: CJD1_(60–164), GAL4 fusion (directed yeast 2-hybrid) (domain or fragment, UniProt Q93WG3 60-164)
chain: ASSAAGNPQSDADFNPYEVLGVNPIEGFDKIKQTYGRKLKDAQRSGDEATAALLEKAYDKLMYAQLMNRKKGVTFGSFKVSKDIKYADKQPIIPWGPRFSRSSKN
binding [2]: binds | binding [3]: no binding | binding [4]: no binding

B2: Mature cpHSP70-1 (aa77–718) (domain or fragment, UniProt Q9STW6 77-718)
chain: NEKVVGIDLGTTNSAVAAMEGGKPTIVTNAEGQRTTPSVVAYTKSGDRLVGQIAKRQAVVNPENTFFSVKRFIGRKMNEVDEESKQVSYRVVRDENNNVKLECPAINKQFAAEEISAQVLRKLVDDASRFLNDKVTKAVITVPAYFNDSQRTATKDAGRIAGLEVLRIINEPTAASLAYGFDRKANETILVFDLGGGTFDVSVLEVGDGVFEVLSTSGDTHLGGDDFDKRVVDWLAAEFKKDEGIDLLKDKQALQRLTEAAEKAKIELSSLTQTNMSLPFITATADGPKHIETTLTRAKFEELCSDLLDRVRTPVENSLRDAKLSFKDIDEVILVGGSTRIPAVQELVRKVTGKEPNVTVNPDEVVALGAAVQAGVLAGDVSDIVLLDVTPLSIGLETLGGVMTKIIPRNTTLPTSKSEVFSTAADGQTSVEINVLQGEREFVRDNKSLGSFRLDGIPPAPRGVPQIEVKFDIDANGILSVSAVDKGTGKKQDITITGASTLPKDEVDQMVQEAERFAKDDKEKRDAIDTKNQADSVVYQTEKQLKELGEKIPGEVKEKVEAKLQELKDKIGSGSTQEIKDAMAALNQEVMQIGQSLYNQPGAGGPGAGPSPGGEGASSGDSSSSKGGDGDDVIDADFTDSQ
binding [5]: binds

No constants are given. Whether binding was seen depends on the method and setting. For some assays here: Binding can be weak; no strength is given. For some assays here: Tags and fused reporters may be left off the sequences shown.
